Measured values: the supplement of paper PMC8728848
Some of the results follow.

How the values were obtained:
Assay in all cases: glycan array binding signal (z-score within array); higher = stronger binding
Settings in all cases: glycan notation: IUPAC condensed, linker removed
[1] = biological target: Neu5Ac(a2-3)Gal(b1-4)GlcNAc(b1-6)GalNAc
In short: (§1)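 Negative Z-scores can be read as non-binding. The Z-score is calculated within each array and then averaged across arrays of one protein sequence at different concentrations or buffers and across linkers. Arrays, 3228 in all, were curated from the Consortium for Functional Glycomics database and kept only where the protein sequence was available.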

[2] = biological target: Neu5Ac(a2-3)Gal(b1-4)GlcNAc(b1-6)[Gal(b1-3)]GalNAc
In short: as §1

[3] = biological target: Neu5Ac(a2-3)Gal(b1-4)GlcNAc(b1-6)[Neu5Ac(a2-3)Gal(b1-3)]GalNAc
In short: as §1

[4] = biological target: Neu5Ac(a2-3)Gal(b1-4)GlcNAc6S
In short: as §1

[5] = biological target: Neu5Ac(a2-3)Gal(b1-4)[Fuc(a1-3)]GlcNAc
In short: as §1

[6] = biological target: Neu5Ac(a2-3)Gal(b1-4)[Fuc(a1-3)]GlcNAc(b1-2)Man
In short: as §1

[7] = biological target: Neu5Ac(a2-3)Gal(b1-4)[Fuc(a1-3)]GlcNAc(b1-3)Gal
In short: as §1

[8] = biological target: Neu5Ac(a2-3)Gal(b1-4)[Fuc(a1-3)]GlcNAc(b1-3)Gal(b1-4)GlcNAc
In short: as §1

[9] = biological target: Neu5Ac(a2-3)Gal(b1-4)[Fuc(a1-3)]GlcNAc(b1-3)Gal(b1-4)[Fuc(a1-3)]GlcNAc(b1-3)Gal(b1-4)[Fuc(a1-3)]GlcNAc
In short: as §1

[10] = biological target: Neu5Ac(a2-3)Gal(b1-4)[Fuc(a1-3)]GlcNAc(b1-3)GalNAc
In short: as §1

[11] = biological target: Neu5Ac(a2-3)Gal(b1-4)[Fuc(a1-3)]GlcNAc(b1-6)[Gal(b1-3)]GalNAc
In short: as §1

[12] = biological target: Neu5Ac(a2-3)Gal(b1-4)[Fuc(a1-3)]GlcNAc(b1-6)[Neu5Ac(a2-3)Gal(b1-3)]GalNAc
In short: as §1

[13] = biological target: Neu5Ac(a2-3)Gal(b1-4)[Fuc(a1-3)]GlcNAc6S
In short: as §1

[14] = biological target: Neu5Ac(a2-3)Gal6S(b1-4)GlcNAc
In short: as §1

[15] = biological target: Neu5Ac(a2-3)Gal6S(b1-4)[Fuc(a1-3)]GlcNAc
In short: as §1

[16] = biological target: Neu5Ac(a2-3)GalNAc
In short: as §1

[17] = biological target: Neu5Ac(a2-3)GalNAc(b1-4)GlcNAc
In short: as §1

[18] = biological target: Neu5Ac(a2-3)[GalNAc(b1-4)]Gal(b1-4)Glc
In short: as §1

[19] = biological target: Neu5Ac(a2-3)[GalNAc(b1-4)]Gal(b1-4)GlcNAc
In short: as §1

[20] = biological target: Neu5Ac(a2-3)[GalNAc(b1-4)]Gal(b1-4)GlcNAc(b1-3)GalNAc
In short: as §1

[21] = biological target: Neu5Ac(a2-3)[Neu5Ac(a2-6)]GalNAc
In short: as §1

[22] = biological target: Neu5Ac(a2-6)Gal
In short: as §1

[23] = biological target: Neu5Ac(a2-6)Gal(b1-3)GlcNAc(b1-3)[Gal(b1-4)GlcNAc(b1-6)]Gal(b1-4)Glc
In short: as §1

[24] = biological target: Neu5Ac(a2-6)Gal(b1-4)Glc
In short: as §1

[25] = biological target: Neu5Ac(a2-6)Gal(b1-4)GlcNAc
In short: as §1

[26] = biological target: Neu5Ac(a2-6)Gal(b1-4)GlcNAc(b1-2)Man
In short: as §1

[27] = biological target: Neu5Ac(a2-6)Gal(b1-4)GlcNAc(b1-2)Man(a1-3)Man(b1-4)GlcNAc(b1-4)GlcNAc
In short: as §1

[28] = biological target: Neu5Ac(a2-6)Gal(b1-4)GlcNAc(b1-2)Man(a1-3)[Gal(b1-4)GlcNAc(b1-2)Man(a1-6)]Man(b1-4)GlcNAc(b1-4)GlcNAc
In short: as §1

[29] = biological target: Neu5Ac(a2-6)Gal(b1-4)GlcNAc(b1-2)Man(a1-3)[GlcNAc(b1-2)Man(a1-6)]Man(b1-4)GlcNAc(b1-4)GlcNAc
In short: as §1

[30] = biological target: Neu5Ac(a2-6)Gal(b1-4)GlcNAc(b1-2)Man(a1-3)[GlcNAc(b1-4)][Neu5Ac(a2-6)Gal(b1-4)GlcNAc(b1-2)Man(a1-6)]Man(b1-4)GlcNAc(b1-4)GlcNAc
In short: as §1

[31] = biological target: Neu5Ac(a2-6)Gal(b1-4)GlcNAc(b1-2)Man(a1-3)[Man(a1-6)]Man(b1-4)GlcNAc(b1-4)GlcNAc
In short: as §1

B1: GS13814A-bth-462-26-462 (Bacteroides thetaiotaomicron) (protein)
chain: DDRDNLMVNDQIGLLHSTYTETEIFRGMDTPYQLFVIKSGKGKQETEVSISVDETVLQSYNTDNGTSIQLLPSDCYTILQPALRLNDSDYRKAFDIKWNADRLSDLLSTGKEYGLPIQMSVVQNFISADDERLKTIIVPTIKEPYLQMDVPGMSPVTDFMPTFGDLNERELFVKIRTNYSNDEDISFQIEVDPQLVIDYNTAHGTAYKMLPESSFTVDNKGVILTGMKETFIKIKYHKKGLIPEEGTYLFGDYVLPLRITSVSKYGISPDAASKLYTVKFQPDPIDKKGWSVIDFNNCCTQDGGWYLNMGWGVESLIDNNPGTQWLCRWDVKEPLPYYFVFDMGKEYTLFRFGFANPVAPAAHVWAGTSKAGYVEASIDNENWVKLKDWTSPKIGEPNVNMDVPATQARYIRFVITDTYPTYDGLRVSLGEVYAWGM
B1 was tested, and the “glycan array binding signal (z-score)” value [1] was 0.89, the “glycan array binding signal (z-score)” value [2] was -0.638 and the “glycan array binding signal (z-score)” value [3] was -1.71. The “glycan array binding signal (z-score)” value [4] was 1.13, the “glycan array binding signal (z-score)” value [5] was -0.003 and the “glycan array binding signal (z-score)” value [6] was -0.803. The “glycan array binding signal (z-score)” value [7] was -0.537, the “glycan array binding signal (z-score)” value [8] was 2.69 and the “glycan array binding signal (z-score)” value [9] was -0.314. For the same binder, the “glycan array binding signal (z-score)” value [10] was 2.14, the “glycan array binding signal (z-score)” value [11] was 0.115 and the “glycan array binding signal (z-score)” value [12] was -0.026. For the same binder, the “glycan array binding signal (z-score)” value [13] was 0.222, the “glycan array binding signal (z-score)” value [14] was 0.333 and the “glycan array binding signal (z-score)” value [15] was -0.295. For the same binder, the “glycan array binding signal (z-score)” value [16] was 0.161, the “glycan array binding signal (z-score)” value [17] was 0.313 and the “glycan array binding signal (z-score)” value [18] was 0.015. The “glycan array binding signal (z-score)” value [19] was 0.079, the “glycan array binding signal (z-score)” value [20] was -1.22 and the “glycan array binding signal (z-score)” value [21] was -0.956. For the same binder, the “glycan array binding signal (z-score)” value [22] was 0.416, the “glycan array binding signal (z-score)” value [23] was -0.133 and the “glycan array binding signal (z-score)” value [24] was 0.642. For the same binder, the “glycan array binding signal (z-score)” value [25] was -0.069, the “glycan array binding signal (z-score)” value [26] was -1.09 and the “glycan array binding signal (z-score)” value [27] was -0.925. For the same binder, the “glycan array binding signal (z-score)” value [28] was -0.242, the “glycan array binding signal (z-score)” value [29] was 0.48 and the “glycan array binding signal (z-score)” value [30] was 0.199. The “glycan array binding signal (z-score)” value [31] was 0.119.
